Data taken from article PMC7819943, “Rice protein-binding microarrays: a tool to detect cis-acting elements near promoter regions in rice”.
The other results are listed elsewhere or left out.

The sequences below were run against T1, OsSMF1 (Oryza sativa, UniProt Q6ZLB0 1-436) (assay: protein-binding microarray (RPBM); PBS, 2% BSA, 51.3 ng/ul salmon testes DNA, 50 uM zinc acetate, 200 nM TF, 25 C, 1 h; high values mean tight binding). Conditions: protein: recombinant; tags: N-terminal polyhistidine and DsRed monomer fusion (pET32a); chain copies: 2; label: CyDye5-dUTP incorporated in the synthesized complementary strand; 3' TTTTT single-stranded linker to array surface; dsDNA, one strand shown.
T1 sequence: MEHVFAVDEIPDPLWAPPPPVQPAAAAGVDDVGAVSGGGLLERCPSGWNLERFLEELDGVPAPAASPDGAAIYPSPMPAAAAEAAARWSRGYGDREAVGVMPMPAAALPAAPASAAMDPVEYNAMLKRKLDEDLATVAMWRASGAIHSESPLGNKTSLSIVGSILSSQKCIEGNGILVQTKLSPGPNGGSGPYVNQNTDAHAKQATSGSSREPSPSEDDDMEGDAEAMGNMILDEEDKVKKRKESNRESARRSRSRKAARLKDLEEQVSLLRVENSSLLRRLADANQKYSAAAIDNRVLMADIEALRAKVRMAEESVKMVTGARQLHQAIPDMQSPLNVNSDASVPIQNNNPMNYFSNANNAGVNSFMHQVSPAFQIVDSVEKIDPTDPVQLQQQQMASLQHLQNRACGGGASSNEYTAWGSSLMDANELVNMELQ
How it was run: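 For the binding signal, per-feature fluorescence intensity was read in arbitrary units on an Axon 4000B scanner. Before scanning, a 2% BSA-blocked custom Agilent array made double-stranded with Cy5-dUTP was washed after 1 h at 25 °C with 200 nM protein and 50 µM zinc acetate. The proteins were Ni–NTA-purified transcription factors with N-terminal polyhistidine and DsRed fusions, expressed in E. coli BL21-CodonPlus.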

Going from “GCTAGTAACTTTTGACGCGTCACTGCATCTGCCGATTCTGCGGAGTCACCTAGTGCAG” to “ATGGTAGAGTGCTGGATGCTGCTGATCAAGCTTCGTCTTCCGGAGTCACCTAGTGCAG”, the binding signal falls from 13100 fluorescence intensity (a.u.) to 3210 fluorescence intensity (a.u.).

Going from “TGCACACACTCACTCCTATAAACATATACACGTACACTCTCGGAGTCACCTAGTGCAG” to “CTCCCACGAACCGCACCTCACCTTCTTTCTCTTTCATTCTCGGAGTCACCTAGTGCAG”, the binding signal rises from 4850 fluorescence intensity (a.u.) to 13600 fluorescence intensity (a.u.).

First: ATTTTGGATGTGATGAACTGATGATGATGCGTGCGTGGCACGGAGTCACCTAGTGCAG
Second: CGGCCGATGCTCCCCGTCACCACTGACGCGCCCCTCCACCCGGAGTCACCTAGTGCAG
The binding signal of the first is higher: 7270 fluorescence intensity (a.u.) for the first, 6530 fluorescence intensity (a.u.) for the second.

First: GATATTGCCCTTGAGCTGTCAGCATTAGTAGGCTATTTAACGGAGTCACCTAGTGCAG
Second: ACGAATAGTAATTTGTGAATAAAACTTTTATATACGTGTTCGGAGTCACCTAGTGCAG
The binding signal of the first is lower: 3720 fluorescence intensity (a.u.) for the first, 4890 fluorescence intensity (a.u.) for the second.

First: GGAGGCGATGGGGCCCACCAGTCAGCCACACGTCTCCCACCGGAGTCACCTAGTGCAG
Second: GTGGACGTGGGGTTGTACACGTCGTCGTCGGGGCATGGGCCGGAGTCACCTAGTGCAG
The binding signal of the first is lower: 3650 fluorescence intensity (a.u.) for the first, 6280 fluorescence intensity (a.u.) for the second.

Going from “GATTAGTCATCCGTGACGGGCTCCTTACTACGCTGGTTTGCGGAGTCACCTAGTGCAG” to “AAAGTTAAAACTTACTCTCTCGGGTATCGGCGACCTTGTACGGAGTCACCTAGTGCAG”, the binding signal falls from 4530 fluorescence intensity (a.u.) to 3210 fluorescence intensity (a.u.).

First: TCACATATACATTCACAATTTCACATCCACCGGATTGAGACGGAGTCACCTAGTGCAG
Second: CCCAAAGGCCCATGACAGGTGATGCAGCATCTTGTTTCTTCGGAGTCACCTAGTGCAG
The binding signal of the first is higher: 33500 fluorescence intensity (a.u.) for the first, 4350 fluorescence intensity (a.u.) for the second.

Going from “ACAGTACTATCTAATCACCACGTGGTTAGCTTCGATTAATCGGAGTCACCTAGTGCAG” to “TCAACTTGCAGAGGCAAATCAAGAAGGTATGTTGAGTGCTCGGAGTCACCTAGTGCAG”, the binding signal rises from 5570 fluorescence intensity (a.u.) to 23700 fluorescence intensity (a.u.).

Going from “AAAGACCTTAGTTTTGACTGTGTATGTTTAACGCATGACCCGGAGTCACCTAGTGCAG” to “GCAGAGACATCGGACAGATACGTGTAATATCAACCATCGGCGGAGTCACCTAGTGCAG”, the binding signal rises from 4440 fluorescence intensity (a.u.) to 4940 fluorescence intensity (a.u.).

Going from “AGGATGATCAGGGCAAGGAGAAGAAGAAGAAGCAACCCACCGGAGTCACCTAGTGCAG” to “GATTGCTTACGTATGGCTATCAAAAGTGTATTAAACTCGTCGGAGTCACCTAGTGCAG”, the binding signal rises from 4140 fluorescence intensity (a.u.) to 5760 fluorescence intensity (a.u.).

Going from “GCCGGAGCTCGTCGCCGTACAGGCGCAGCCCCATGGCGGACGGAGTCACCTAGTGCAG” to “CGGTGACGACCACCCCACCTCACGATCCAACGGCCAATACCGGAGTCACCTAGTGCAG”, the binding signal rises from 3790 fluorescence intensity (a.u.) to 4080 fluorescence intensity (a.u.).

First: TTGATTGTATTAACACTTGTGGCAATGACCACGTGGGACCCGGAGTCACCTAGTGCAG
Second: ATGTGTCCTCATGTTTGGCGTGTCCCTTCTGACTGATTCGCGGAGTCACCTAGTGCAG
The binding signal of the first is higher: 7960 fluorescence intensity (a.u.) for the first, 4210 fluorescence intensity (a.u.) for the second.

Compared with “CAACCATGAGGGGAGGGGAGGCCATAGTGGAGGACTGGAGCGGAGTCACCTAGTGCAG”, “AAACGTCGCCAACGTAACGTCCAGTCCGCGCTCCCTGCAACGGAGTCACCTAGTGCAG” is lower in binding signal: 3700 fluorescence intensity (a.u.) for the first, 3680 fluorescence intensity (a.u.) for the second.

Compared with “AGAACACAATAACTTTTGCACAATTGTCACAACGGCTAGTCGGAGTCACCTAGTGCAG”, “GCCTGGAATGTATCTGGCTGGGGCTGACGTGCCAACTCCACGGAGTCACCTAGTGCAG” is higher in binding signal: 3970 fluorescence intensity (a.u.) for the first, 10500 fluorescence intensity (a.u.) for the second.

First: CCGCGTGGAGCTCCCTGACACGTGGGACCCACCAAACCTCCGGAGTCACCTAGTGCAG
Second: TCATGGATTGGCAGCACGCTATCCTGGACGTCATTGTTTCCGGAGTCACCTAGTGCAG
The binding signal of the first is higher: 12000 fluorescence intensity (a.u.) for the first, 4040 fluorescence intensity (a.u.) for the second.

Going from “CAACGATTTTGGATGGCAGTTTCACTAACGTGGTAACTACCGGAGTCACCTAGTGCAG” to “AGGTAGTGTTTGGCACGCACATCAGCGCATTTCTTGTGGTCGGAGTCACCTAGTGCAG”, the binding signal rises from 3160 fluorescence intensity (a.u.) to 4330 fluorescence intensity (a.u.).

Compared with “ACGAACGAACTGACCAGTCAGCAGTAGTAGTCCAGCGGAACGGAGTCACCTAGTGCAG”, “CATTGTTCGTGAAAGTAATAGTTCGGTCGATGACTCGGACCGGAGTCACCTAGTGCAG” is higher in binding signal: 5250 fluorescence intensity (a.u.) for the first, 35800 fluorescence intensity (a.u.) for the second.

First: AATCATTTTGTCATCCAAGTGTGATGAGAAGATCATGATACGGAGTCACCTAGTGCAG
Second: CGACCCAACCGTTTGACTCACATAATAGTGAATCAAATCACGGAGTCACCTAGTGCAG
The binding signal of the first is higher: 3380 fluorescence intensity (a.u.) for the first, 3170 fluorescence intensity (a.u.) for the second.

Compared with “TACACACGTACGATGTGGACGTGTTCACAAAACGAATCCCCGGAGTCACCTAGTGCAG”, “AAGCGAGCGCCACGTGGCGTGTGATGTGGACACTCCGGAACGGAGTCACCTAGTGCAG” is higher in binding signal: 5050 fluorescence intensity (a.u.) for the first, 21300 fluorescence intensity (a.u.) for the second.

First: ATTTATTAGGGCAGCGTAGTGTGTCAGCTGTCTTGTGGAACGGAGTCACCTAGTGCAG
Second: AATAAGTTGCATCCCATTGGTAGGTACAATTGTATAAATTCGGAGTCACCTAGTGCAG
The binding signal of the first is lower: 3720 fluorescence intensity (a.u.) for the first, 20600 fluorescence intensity (a.u.) for the second.

Compared with “GGATTAACAGTTTTGTGAATCAGCTTGAATTCTGTGTGTGCGGAGTCACCTAGTGCAG”, “TGGGAGGCCTTGCTGACAGTACTGCAATATGGACTGCTTCCGGAGTCACCTAGTGCAG” is lower in binding signal: 3720 fluorescence intensity (a.u.) for the first, 3330 fluorescence intensity (a.u.) for the second.
